This note sets out measurements from PubChem BioAssay AID2685 (National Center for Advancing Translational Sciences (NCATS), 2010).

The list shows a part of the results. These are further read-outs of the screen, such as a control signal, another cell line or another target. No call is given for them. Compounds called inactive in the main read-out are mostly missing here. Words in brackets tell the shape of the fitted curve; partial curves, single points and poor fits give uncertain potencies.

The assay is described as follows: qHTS Assay for Lipid Storage Modulators in Drosophila S3 Cells.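 On cell number change: cells counted by Cell Tracker Red CMTPX staining in the red channel.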 Conditions: BODIPY lipid droplet fluorescence, 18-24 h; for cell number change: measured here: cell count max response, cells fed with added oleic acid. A digest of the protocol: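 Drosophila S3 cells loaded with oleic acid (400 uM, as added) and compounds at several concentrations; lipid droplets imaged by 488-nm laser-scanning cytometry, 500–530 nm intensity and object ratio to cell channel. Percent activity normalized to 20 uM Triacsin C.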
In general terms: qHTS replaces the single test concentration by a dilution series.

Setting [1] is: measured here: lipid fluorescence (Fed channel) AC50, cells fed with added oleic acid.
[2] abbreviates: measured here: cell number channel AC50, cells fed with added oleic acid.

For `COc1ccc(C2CC(=O)c3cnc(NC(=O)c4ccccc4)nc3C2)c(OC)c1` (stereo unspecified), the cell number change was -10.8%. Further, under setting [1], the half-maximal activity concentration (AC50) (usually the concentration giving half of the maximal activity seen) is 0.116 µM [rising, full curve].

For the molecule `Cc1ccc(S(=O)(=O)CCC(=O)c2ccc(F)cc2)cc1`, the cell number change was -0.244%.

Regarding `C=C(C)C1CC=C(C)/C(=N/NC(=O)c2ccccc2[N+](=O)[O-])C1` (stereo unspecified), the cell number change worked out at 21.1%.

`Cc1ccc(S(=O)(=O)N2CCN(CC(=O)NC3CCCc4ccccc43)CC2)cc1C` (stereo unspecified): the cell number change came out at 33.4%. Besides, the AC50 under setting [2] was 3.26 µM [rising, partial curve, poor fit]. Moreover, under setting [1], the half-maximal activity concentration (AC50) was 0.116 µM [rising, full curve, poor fit].

For `COc1nc(N/N=C/c2ccccc2F)nc(N2CCCCC2)n1`, the concentration at half-maximal activity (AC50) under setting [1] is 0.58 µM [falling, single point].

Consider `Oc1ccccc1-c1nc(NC2CCCC2)c2ccccc2n1`, for which the cell number change is 1.11%.

For `Cc1cc(C)nc(Nc2n[nH]c(COc3ccc(Cl)cc3)n2)n1`, the cell number change was found to be 1.71%. The concentration at half-maximal activity (AC50) under setting [2] was 0.0731 µM [rising, full curve, poor fit]. Moreover, under setting [1], the AC50 is 0.0651 µM [rising, full curve, poor fit].

In the case of `Nc1c(C(=O)NC2CCCC2)c2nc3ccccc3nc2n1N`, the cell number change was -38.5%. In addition, the AC50 under setting [2] is 11.6 µM [falling, partial curve, poor fit]. The AC50 under setting [1] was 0.259 µM [rising, full curve, poor fit].

As to `COc1ccc(Cc2nnc(NC(=O)C3CC(=O)N(c4ccccc4C)C3)s2)cc1OC` (stereo unspecified), the cell number change is 3.23%.

With `CCOc1ccc(NC(=S)N2CCN(S(C)(=O)=O)CC2)cc1`, the cell number change was determined as 14%.

As for `COc1ccccc1NS(=O)(=O)c1ccc(O)c(C(=O)OCC(=O)N2c3ccccc3CC2C)c1` (stereo unspecified), the cell number change turned out to be 33.7%. Also, the AC50 under setting [1] was 16.4 µM [rising, partial curve, poor fit].

As for `Cc1ccc(Nc2nc(-c3ccc(O)c(O)c3)cs2)nc1`, the cell number change is -24.5%. Moreover, the AC50 under setting [1] was 29.1 µM [falling, single point].

`Cc1ccc(NC(=O)c2ccccc2NS(=O)(=O)c2ccc(F)cc2)cc1S(=O)(=O)N1CCCCC1`: the cell number change was -31.2%. Moreover, the AC50 under setting [2] is 32.6 µM [falling, single point].

For the molecule `CCOCc1nnc(NC(=O)CS(=O)(=O)c2ccc(C)cc2)s1`, the cell number change is -2.86%. The half-maximal activity concentration (AC50) under setting [1] was 6.51 µM [rising, single point].

`O=C1C(=O)N(c2ccccn2)C(c2ccc(F)cc2)/C1=C(/O)c1ccc(Br)cc1` (stereo unspecified): the cell number change amounted to 11.7%. In addition, under setting [1], the half-maximal activity concentration (AC50) was 29.1 µM [falling, single point].

Turning to `O=c1[nH]c(/C=C/c2cccnc2)c([N+](=O)[O-])c(=O)[nH]1`, the cell number change was -54%. Further, the AC50 under setting [2] is 20.6 µM [falling, partial curve]. Also, the AC50 under setting [1] is 20.6 µM [falling, partial curve, poor fit].

`O=C(CCCN1C(=O)C(c2ccccc2)Oc2cccnc21)NCc1ccc(F)cc1` (stereo unspecified): the cell number change was -23.6%.

Regarding `Cc1ccc(S(=O)(=O)N2CCOCC2)cc1C(=O)OC(C)C(=O)NC1CCCC1` (stereo unspecified), the cell number change was 14.4%. The AC50 under setting [1] is 3.26 µM [rising, single point].

Regarding `COc1ccccc1N1CCN(/N=C/C=C\c2ccccc2[N+](=O)[O-])CC1`, the cell number change was -49.9%. The AC50 under setting [2] was 18.4 µM [falling, partial curve, poor fit].

As to `O=C(CNC(=O)c1ccccc1)OCC(=O)N1N=C(c2ccc(Cl)cc2)CC1c1ccco1` (stereo unspecified), the cell number change was -10.3%. The half-maximal activity concentration (AC50) under setting [2] is 0.00461 µM [rising, full curve, poor fit]. Also, the AC50 under setting [1] was 0.116 µM [rising, full curve, poor fit].

In the case of `CCN(CC(=O)Nc1cccc(S(=O)(=O)N(C)c2ccccc2)c1)Cc1ccccc1`, the cell number change is -0.501%. Moreover, the concentration at half-maximal activity (AC50) under setting [1] was 2.06 µM [falling, partial curve].

In the case of `COc1ccc(N(CC(=O)N2CCN(c3cccc(Cl)c3)CC2)S(=O)(=O)c2c(C)noc2C)cc1`, the cell number change is -10.4%. For the same molecule, under setting [1], the AC50 was 29.1 µM [rising, single point].

On to `O=C(COc1ccccc1)N1CCN(S(=O)(=O)c2cccs2)CC1`, for which the cell number change is 25.7%. Also, under setting [1], the concentration at half-maximal activity (AC50) was 14.6 µM [rising, single point].

For `COc1ccc(NC(=O)c2cccc(-c3ccc(O)cc3)c2)cn1`, the cell number change came to 12.1%. In addition, the AC50 under setting [1] was 32.6 µM [falling, single point].

For the molecule `COc1ccc(S(=O)(=O)N[C@H](C(=O)N2CC[C@@]3(O)CCCC[C@H]3C2)c2ccccc2)cc1`, the cell number change is -17.3%. In addition, under setting [1], the AC50 is 6.51 µM [falling, single point].

As for `Cc1ccc(CN(CC(=O)NCc2ccc3c(c2)OCO3)C(=O)c2csnn2)cc1`, the cell number change came out at 11.2%. Further, the half-maximal activity concentration (AC50) under setting [1] was 18.4 µM [rising, partial curve, poor fit].

For the molecule `Cc1ccc(NC(=O)C2CCN(S(=O)(=O)c3ccc4c(c3)oc(=O)n4C)CC2)cc1`, the cell number change turned out to be 59.7%. Besides, the AC50 under setting [2] is 29.1 µM [rising, single point]. The half-maximal activity concentration (AC50) under setting [1] is 16.4 µM [rising, single point].

In the case of `COc1ccc(Br)cc1C(=O)Nc1cccc(C)c1`, the cell number change was determined as 6.24%. Besides, under setting [2], the AC50 was 6.51 µM [rising, single point]. Moreover, the AC50 under setting [1] was 0.0092 µM [rising, full curve, poor fit].

For `CN(C(=O)C1CCOC1)c1nnc(-c2ccccn2)s1` (stereo unspecified), the cell number change worked out at 4.03%. For the same molecule, the concentration at half-maximal activity (AC50) under setting [2] was 0.231 µM [falling, full curve]. Further, the half-maximal activity concentration (AC50) under setting [1] was 0.461 µM [falling, full curve].

For the molecule `COc1ccc2nc(SCC(=O)N(C)C3CCCCC3)[nH]c2c1`, the cell number change is -59.2%. Moreover, the concentration at half-maximal activity (AC50) under setting [2] was 3.26 µM [falling, full curve]. Further, the AC50 under setting [1] is 0.0517 µM [falling, full curve].

For the molecule `CC(C)(C)C1CCC(=NOC(=O)c2ccc(F)cc2)CC1` (stereo unspecified), the cell number change was 2.74%. The half-maximal activity concentration (AC50) under setting [2] was 0.00411 µM [falling, full curve, poor fit].

On to `Cc1csc(=O)n1CCC(=O)OCC(=O)Nc1ccc(F)c(F)c1F`, for which the cell number change was -3.42%.

`O=C(Cc1ccc(F)cc1)N/N=C/c1ccncc1`: the cell number change is -17%.

Consider `Cc1ccc(Cl)cc1NC(=S)N(CCN(C)C)Cc1cccs1`, for which, under setting [2], the concentration at half-maximal activity (AC50) is 6.51 µM [rising, partial curve, poor fit].

With `CCN(CC)S(=O)(=O)c1ccc(N2CCCC2)c(C(=O)OCC(=O)/C(C#N)=C(\C)N)c1`, the cell number change amounted to 3.05%. Under setting [1], the AC50 is 0.517 µM [rising, full curve].

As for `CCOc1c(OC(C)=O)ccc(/C=C2\N=C(SCC)SC2=O)c1[N+](=O)[O-]`, the cell number change came out at 0.536%.

With `CCOc1ccccc1NC(=O)C(=O)NCC1CCCN1CC` (stereo unspecified), the cell number change is -20.4%.

With `COc1ccc(OCc2ccc(C(=O)NN)cc2)cc1`, the cell number change stood at 15.4%.

Take `CCCCC(O)(C(NC=O)C(=O)OC)C(F)(F)F` (stereo unspecified): the AC50 under setting [2] is 6.51 µM [falling, single point].

Regarding `CCc1cccc(OCCCCNCCO)c1`, the cell number change was -32.2%. Also, the concentration at half-maximal activity (AC50) under setting [2] was 0.164 µM [falling, full curve]. Besides, under setting [1], the half-maximal activity concentration (AC50) was 0.82 µM [falling, full curve].

As to `CCOc1ccc(NC(=O)CN(C)C(=O)Cn2cnc3c2c(=O)n(C)c(=O)n3C)cc1OCC`, the AC50 is 6.51 µM [falling, single point] under setting [2] and 29.1 µM [rising, single point] under setting [1].

Take `C(=N\N1CCN(c2ccccn2)CC1)/c1cccc2ccccc12`: the cell number change came out at 10.6%. Under setting [1], the AC50 is 1.84 µM [rising, partial curve, poor fit].

With `O=C1CN(C(=S)Nc2ccc(OC(F)F)cc2)CCN1`, the cell number change worked out at 1.04%. Besides, under setting [2], the AC50 is 1.46 µM [falling, partial curve, poor fit].

For `COC(=O)C1=C(C)OC(N)=C(C#N)C1c1cc(C)sc1C` (stereo unspecified), the cell number change is -2.56%. For the same molecule, the AC50 under setting [1] is 0.58 µM [rising, single point].

Turning to `CCCCc1nc(SCCN2CCOCC2)c2c(=O)n(C)c(=O)n(C)c2n1`, under setting [2], the AC50 was 6.51 µM [rising, partial curve, poor fit].

On to `O=C(c1ccc(N2C(=O)C3C4CC(C(Br)C4Br)C3C2=O)cc1)N1CCCCC1` (stereo unspecified), for which the cell number change was -10.5%.

Consider `COCCCn1c(Cc2csc(Nc3cccc(Cl)c3)n2)nnc1SCC(=O)OC1CCCCC1`, for which the cell number change is -27.7%. Besides, the AC50 under setting [1] is 32.6 µM [falling, partial curve, poor fit].

With `Cc1cccc(CSc2nc3ccccc3c(=O)n2C)c1`, the cell number change is -23.5%. For the same molecule, the AC50 under setting [1] is 0.731 µM [falling, full curve, poor fit].

Turning to `Cc1cc(NC(=O)CN2CCN(C)CC2)no1`, the cell number change was -25.2%.

With `NS(=O)(=O)c1ccc(CCNC(=O)CN2C(=O)COc3ccc(S(=O)(=O)N4CCCC4)cc32)cc1`, the cell number change is 12.2%. Further, under setting [1], the concentration at half-maximal activity (AC50) was 29.1 µM [rising, single point].

Take `CCn1ncc(Cl)c1C(=O)NC(=S)Nc1ccccc1Br`: the cell number change is -7.23%. In addition, under setting [2], the AC50 is 0.0731 µM [rising, full curve, poor fit]. Besides, under setting [1], the concentration at half-maximal activity (AC50) was 0.326 µM [falling, full curve, poor fit].

In the case of `CCCn1cnnc1CNC(=O)C1CCC(=O)N(CCCc2ccccc2)C1` (stereo unspecified), the cell number change is -17.9%. Also, under setting [1], the AC50 was 16.4 µM [falling, single point].

As to `NS(=O)(=O)c1ccc(CCNC(=O)COC(=O)CCN2C(=O)C3CC=CCC3C2=O)cc1` (stereo unspecified), the cell number change is -15.5%. The AC50 under setting [1] is 20.6 µM [rising, single point].

With `Cc1nc2ccc(NC(=O)c3cc(S(=O)(=O)N(C)c4ccccc4)ccc3Cl)cc2s1`, the cell number change turned out to be 4.57%. Besides, the half-maximal activity concentration (AC50) under setting [1] is 1.84 µM [rising, partial curve, poor fit].

As to `Cc1cc(C(=O)OCC(=O)Nc2ccc(S(=O)(=O)N3CCOCC3)cc2)c(C)o1`, the cell number change was -23.1%.

With `O=C(NCc1ccccc1)c1onc(CSc2ccc(F)cc2)c1C(=O)NCCCN1CCOCC1`, the cell number change was -6.28%. Under setting [2], the half-maximal activity concentration (AC50) was 1.84 µM [rising, partial curve].

In the case of `COc1ccc(S(=O)(=O)NC2CCCCC2)cc1C(=O)N1CCCCC1`, the half-maximal activity concentration (AC50) under setting [1] is 4.11 µM [rising, full curve, poor fit].

As for `CCCN1C(=O)/C(=C/c2ccc(C)o2)NC1=S`, the cell number change is -3.33%.

Take `CCc1ccc(-c2csc3ncn(Cc4ccc(C(=O)O)cc4)c(=O)c23)cc1`: the cell number change is -49.4%. The half-maximal activity concentration (AC50) under setting [2] was 29.1 µM [falling, single point].

Regarding `CC(C)c1ncc(C(O)c2cccc3ccccc23)n1C` (stereo unspecified), the cell number change came out at 8.98%. Further, under setting [1], the AC50 was 29.1 µM [falling, single point].
